Data as given in PubChem BioAssay AID1259308 (NCATS, 2017)

- Aim: 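Candidate targets for better recombinant protein yield in mammalian cells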 (primary screen)
- System: human HEK293 embryonic kidney cells stably expressing firefly luciferase (HEK-CMV-Luc2-Hygro)
- Reagents: single siRNA against human genes, 0.8 pmol siRNA per well
- Time to read-out: 72 h
- Read-out: 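Luciferase light (ONE-Glo) measured on one replicate plate set and viability (CellTiter-Glo) on the other, scaled to a negative control siRNA, with robust z-scores and luciferase per cell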
- Reading the numbers: total luciferase, z-score: higher = more reporter protein produced
- Call rule: 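An siRNA counts as active if its total luciferase robust z-score exceeds 3; genes with two or more such siRNAs out of three were retested with fresh siRNAs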
- Calls: active = raised luciferase; inactive = no rise
Here is one part, drawn at random, of about 59,000 reagents. Over the whole deposit, about 1,510 (2.6%) got an active call. 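Calls use total luciferase alone and ignore viability, so some active siRNAs may act by altering cell number.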 The numbers tell different reagents against one gene apart. Not all columns of the deposit are shown.

no.	target	reagent no.	total luciferase, z-score	outcome
1	LINC02871 (long independently transcribed non-coding RNA 2871)	1	-0.0974	inactive
2	LINC02871 (long independently transcribed non-coding RNA 2871)	2	2.37	inactive
3	LINC02871 (long independently transcribed non-coding RNA 2871)	3	0.854	inactive
4	SLC39A1	1	0.134	inactive
5	SLC39A1	2	-0.401	inactive
6	SLC39A1	3	0.258	inactive
7	KPTN (kaptin, actin binding protein)	1	0.835	inactive
8	KPTN (kaptin, actin binding protein)	2	-0.664	inactive
9	KPTN (kaptin, actin binding protein)	3	-0.664	inactive
10	COL6A6 (collagen type VI alpha 6 chain)	1	-0.653	inactive
11	COL6A6 (collagen type VI alpha 6 chain)	2	-1.52	inactive
12	COL6A6 (collagen type VI alpha 6 chain)	3	0.868	inactive
13	CFAP92 (cilia and flagella associated protein 92 (putative))	1	-1.42	inactive
14	CFAP92 (cilia and flagella associated protein 92 (putative))	2	0.136	inactive
15	CFAP92 (cilia and flagella associated protein 92 (putative))	3	-1.31	inactive
16	NUBP2 (NUBP iron-sulfur cluster assembly factor 2, cytosolic)	1	-0.405	inactive
17	NUBP2 (NUBP iron-sulfur cluster assembly factor 2, cytosolic)	2	-0.195	inactive
18	NUBP2 (NUBP iron-sulfur cluster assembly factor 2, cytosolic)	3	-0.332	inactive
19	CYP2C9 (cytochrome P450 family 2 subfamily C member 9)	1	-0.231	inactive
20	CYP2C9 (cytochrome P450 family 2 subfamily C member 9)	2	-0.392	inactive
21	CYP2C9 (cytochrome P450 family 2 subfamily C member 9)	3	-0.136	inactive
22	SPEG (striated muscle enriched protein kinase)	1	0.0671	inactive
23	SPEG (striated muscle enriched protein kinase)	2	0.328	inactive
24	SPEG (striated muscle enriched protein kinase)	3	-0.539	inactive

2 neighbouring entries already listed, quoted:
no.	target	reagent no.	total luciferase, z-score	outcome
1	LINC02871 (long independently transcribed non-coding RNA 2871)	1	-0.0974	inactive
2	LINC02871 (long independently transcribed non-coding RNA 2871)	2	2.37	inactive

Further reagents follow:
no.	target	reagent no.	total luciferase, z-score	outcome
25	PRR16 (proline rich 16)	1	-0.112	inactive
26	PRR16 (proline rich 16)	2	-0.207	inactive
27	PRR16 (proline rich 16)	3	3.56	active
28	LINC01446 (long independently transcribed non-coding RNA 1446)	1	-1.06	inactive
29	LINC01446 (long independently transcribed non-coding RNA 1446)	2	-0.275	inactive
30	LINC01446 (long independently transcribed non-coding RNA 1446)	3	-0.403	inactive
31	TEF (TEF transcription factor, PAR bZIP family member)	1	-1.57	inactive
32	TEF (TEF transcription factor, PAR bZIP family member)	2	-0.467	inactive
33	TEF (TEF transcription factor, PAR bZIP family member)	3	3.29	active
34	CCK (cholecystokinin)	1	-0.648	inactive
35	CCK (cholecystokinin)	2	3.07	active
36	CCK (cholecystokinin)	3	0.496	inactive
37	RPL31P57 (ribosomal protein L31 pseudogene 57)	1	0.389	inactive
38	RPL31P57 (ribosomal protein L31 pseudogene 57)	2	1.26	inactive
39	RPL31P57 (ribosomal protein L31 pseudogene 57)	3	0.205	inactive
